According to the supplement of paper PMC8728848:
This is one part of the list.

Key:
Assay in all cases: glycan array binding signal (z-score within array); higher = stronger binding
Settings in all cases: glycan notation: IUPAC condensed, linker removed
[1] = target: Neu5Ac(a2-3)Gal(b1-4)GlcNAc(b1-3)[Neu5Ac(a2-3)Gal(b1-4)GlcNAc(b1-6)]GalNAc
Summary of the method: (§1)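 From the Consortium for Functional Glycomics database, 3228 arrays were curated, keeping only those whose protein sequence was available. Binding is given as a within-array Z-score averaged across arrays sharing a protein sequence and across linkers. Negative Z-scores can be read as non-binding.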

[2] = target: Neu5Ac(a2-3)Gal(b1-4)GlcNAc(b1-6)GalNAc
Summary of the method: as §1

[3] = target: Neu5Ac(a2-3)Gal(b1-4)GlcNAc(b1-6)[Gal(b1-3)]GalNAc
Summary of the method: as §1

[4] = target: Neu5Ac(a2-3)Gal(b1-4)GlcNAc(b1-6)[Neu5Ac(a2-3)Gal(b1-3)]GalNAc
Summary of the method: as §1

[5] = target: Neu5Ac(a2-3)Gal(b1-4)GlcNAc6S
Summary of the method: as §1

[6] = target: Neu5Ac(a2-3)Gal(b1-4)[Fuc(a1-3)]GlcNAc
Summary of the method: as §1

[7] = target: Neu5Ac(a2-3)Gal(b1-4)[Fuc(a1-3)]GlcNAc(b1-2)Man
Summary of the method: as §1

[8] = target: Neu5Ac(a2-3)Gal(b1-4)[Fuc(a1-3)]GlcNAc(b1-3)Gal
Summary of the method: as §1

[9] = target: Neu5Ac(a2-3)Gal(b1-4)[Fuc(a1-3)]GlcNAc(b1-3)Gal(b1-4)GlcNAc
Summary of the method: as §1

[10] = target: Neu5Ac(a2-3)Gal(b1-4)[Fuc(a1-3)]GlcNAc(b1-3)Gal(b1-4)[Fuc(a1-3)]GlcNAc(b1-3)Gal(b1-4)[Fuc(a1-3)]GlcNAc
Summary of the method: as §1

[11] = target: Neu5Ac(a2-3)Gal(b1-4)[Fuc(a1-3)]GlcNAc(b1-3)GalNAc
Summary of the method: as §1

[12] = target: Neu5Ac(a2-3)Gal(b1-4)[Fuc(a1-3)]GlcNAc(b1-6)[Gal(b1-3)]GalNAc
Summary of the method: as §1

[13] = target: Neu5Ac(a2-3)Gal(b1-4)[Fuc(a1-3)]GlcNAc(b1-6)[Neu5Ac(a2-3)Gal(b1-3)]GalNAc
Summary of the method: as §1

[14] = target: Neu5Ac(a2-3)Gal(b1-4)[Fuc(a1-3)]GlcNAc6S
Summary of the method: as §1

[15] = target: Neu5Ac(a2-3)Gal6S(b1-4)GlcNAc
Summary of the method: as §1

[16] = target: Neu5Ac(a2-3)Gal6S(b1-4)[Fuc(a1-3)]GlcNAc
Summary of the method: as §1

Neu5Ac(a2-3)GalNAc = target: Neu5Ac(a2-3)GalNAc
Summary of the method: as §1

[17] = target: Neu5Ac(a2-3)GalNAc(b1-4)GlcNAc
Summary of the method: as §1

[18] = target: Neu5Ac(a2-3)[GalNAc(b1-4)]Gal(b1-4)Glc
Summary of the method: as §1

[19] = target: Neu5Ac(a2-3)[GalNAc(b1-4)]Gal(b1-4)GlcNAc
Summary of the method: as §1

[20] = target: Neu5Ac(a2-3)[GalNAc(b1-4)]Gal(b1-4)GlcNAc(b1-3)GalNAc
Summary of the method: as §1

[21] = target: Neu5Ac(a2-3)[Neu5Ac(a2-6)]GalNAc
Summary of the method: as §1

Neu5Ac(a2-6)Gal = target: Neu5Ac(a2-6)Gal
Summary of the method: as §1

[22] = target: Neu5Ac(a2-6)Gal(b1-3)GlcNAc(b1-3)[Gal(b1-4)GlcNAc(b1-6)]Gal(b1-4)Glc
Summary of the method: as §1

Neu5Ac(a2-6)Gal(b1-4)Glc = target: Neu5Ac(a2-6)Gal(b1-4)Glc
Summary of the method: as §1

[23] = target: Neu5Ac(a2-6)Gal(b1-4)GlcNAc
Summary of the method: as §1

[24] = target: Neu5Ac(a2-6)Gal(b1-4)GlcNAc(b1-2)Man
Summary of the method: as §1

[25] = target: Neu5Ac(a2-6)Gal(b1-4)GlcNAc(b1-2)Man(a1-3)Man(b1-4)GlcNAc(b1-4)GlcNAc
Summary of the method: as §1

[26] = target: Neu5Ac(a2-6)Gal(b1-4)GlcNAc(b1-2)Man(a1-3)[Gal(b1-4)GlcNAc(b1-2)Man(a1-6)]Man(b1-4)GlcNAc(b1-4)GlcNAc
Summary of the method: as §1

[27] = target: Neu5Ac(a2-6)Gal(b1-4)GlcNAc(b1-2)Man(a1-3)[GlcNAc(b1-2)Man(a1-6)]Man(b1-4)GlcNAc(b1-4)GlcNAc
Summary of the method: as §1

B1: SHCBP1-GST (Homo sapiens), Q8NEM2 (protein)
chain: MADGSLTGGGLEAAAMAPERMGWAVEQELASLEKGLFQDEDSCSDCSYRDKPGSSLQSFMPEGKTFFPEIFQTNQLLFYERFRAYQDYILADCKASEVQEFTAEFLEKVLEPSGWRAVWHTNVFKVLVEITDVDFAALKAVVRLAEPYLCDSQVSTFTMECMKELLDLKEHRLPLQELWVVFDDSGVFDQTALAIEHVRFFYQNIWRSWDEEEEDEYDYFVRCVEPRLRLHYDILEDRVPSGLIVDYHNLLSQCEESYRKFLNLRSSLSNCNSDSEQENISMVEGLKLYSEMEQLKQKLKLIENPLLRYVFGYQKNSNIQAKGVRSSGQKITHVVSSTMMAGLLRSLLTDRLCQEPGEEEREIQFHSDPLSAINACFEGDTVIVCPGHYVVHGTFSIADSIELEGYGLPDDIVIEKRGKGDTFVDCTGADIKISGIKFVQHDAVEGILIVHRGKTTLENCVLQCETTGVTVRTSAEFLMKNSDLYGAKGAGIEIYPGSQCTLSDNGIHHCKEGILIKDFLDEHYDIPKISMVNNIIHNNEGYGVVLVKPTIFSDLQENAEDGTEENKALKIQTSGEPDVAERVDLEELIECATGKMELCARTDPSEQVEGNCEIVNELIAASTQKGQIKKKRLSELGITQADDNLMSQEMFVGIVGNQFKWNGKGSFGTFLF
For B1, the “glycan array binding signal (z-score)” value [1] was 0.316, the “glycan array binding signal (z-score)” value [2] was 1.06 and the “glycan array binding signal (z-score)” value [3] was -0.811. The “glycan array binding signal (z-score)” value [4] was -0.665, the “glycan array binding signal (z-score)” value [5] was -0.159 and the “glycan array binding signal (z-score)” value [6] was -0.388. The “glycan array binding signal (z-score)” value [7] was -0.022, the “glycan array binding signal (z-score)” value [8] was -0.924 and the “glycan array binding signal (z-score)” value [9] was -0.055. The “glycan array binding signal (z-score)” value [10] was -0.354, the “glycan array binding signal (z-score)” value [11] was 0.726 and the “glycan array binding signal (z-score)” value [12] was -0.35. For the same binder, the “glycan array binding signal (z-score)” value [13] was -0.607, the “glycan array binding signal (z-score)” value [14] was -0.641 and the “glycan array binding signal (z-score)” value [15] was 0.329. The “glycan array binding signal (z-score)” value [16] was -0.518, the “glycan array binding signal (z-score)” value (Neu5Ac(a2-3)GalNAc) was -0.122 and the “glycan array binding signal (z-score)” value [17] was -0.159. For the same binder, the “glycan array binding signal (z-score)” value [18] was -0.047, the “glycan array binding signal (z-score)” value [19] was 0.08 and the “glycan array binding signal (z-score)” value [20] was 0.194. For the same binder, the “glycan array binding signal (z-score)” value [21] was 0.17, the “glycan array binding signal (z-score)” value (Neu5Ac(a2-6)Gal) was -0.258 and the “glycan array binding signal (z-score)” value [22] was -0.691. For the same binder, the “glycan array binding signal (z-score)” value (Neu5Ac(a2-6)Gal(b1-4)Glc) was -0.263, the “glycan array binding signal (z-score)” value [23] was -0.229 and the “glycan array binding signal (z-score)” value [24] was -0.388. For the same binder, the “glycan array binding signal (z-score)” value [25] was -0.066, the “glycan array binding signal (z-score)” value [26] was 0.542 and the “glycan array binding signal (z-score)” value [27] was -0.864.
